Assay results: the supplement of paper PMC10849652
Some of the results follow.

Sequences of proteins named here, by UniProt entry; tags and fusion partners are left off. A change or cut given only in a name is not applied to a line headed by its entry.
UniProt Q9BVS4: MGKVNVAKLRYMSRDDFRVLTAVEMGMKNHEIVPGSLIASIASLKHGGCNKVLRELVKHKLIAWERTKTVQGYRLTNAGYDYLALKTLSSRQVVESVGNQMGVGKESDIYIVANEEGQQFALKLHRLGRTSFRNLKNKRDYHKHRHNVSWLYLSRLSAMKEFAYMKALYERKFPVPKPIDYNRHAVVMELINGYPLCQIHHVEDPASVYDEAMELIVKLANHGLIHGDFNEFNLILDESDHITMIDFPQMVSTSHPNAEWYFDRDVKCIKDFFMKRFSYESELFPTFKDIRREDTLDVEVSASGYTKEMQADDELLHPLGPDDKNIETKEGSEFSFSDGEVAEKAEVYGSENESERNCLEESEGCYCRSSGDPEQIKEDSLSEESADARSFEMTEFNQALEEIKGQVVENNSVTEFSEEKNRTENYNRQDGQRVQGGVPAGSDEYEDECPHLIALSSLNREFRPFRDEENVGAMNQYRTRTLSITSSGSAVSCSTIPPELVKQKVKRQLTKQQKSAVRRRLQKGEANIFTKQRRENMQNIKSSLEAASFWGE
UniProt P84095: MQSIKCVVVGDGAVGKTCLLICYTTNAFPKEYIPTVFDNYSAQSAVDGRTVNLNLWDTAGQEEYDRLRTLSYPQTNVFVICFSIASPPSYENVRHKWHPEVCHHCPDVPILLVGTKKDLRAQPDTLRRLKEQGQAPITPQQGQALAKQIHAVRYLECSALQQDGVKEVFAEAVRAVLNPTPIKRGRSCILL
UniProt Q6NUM9: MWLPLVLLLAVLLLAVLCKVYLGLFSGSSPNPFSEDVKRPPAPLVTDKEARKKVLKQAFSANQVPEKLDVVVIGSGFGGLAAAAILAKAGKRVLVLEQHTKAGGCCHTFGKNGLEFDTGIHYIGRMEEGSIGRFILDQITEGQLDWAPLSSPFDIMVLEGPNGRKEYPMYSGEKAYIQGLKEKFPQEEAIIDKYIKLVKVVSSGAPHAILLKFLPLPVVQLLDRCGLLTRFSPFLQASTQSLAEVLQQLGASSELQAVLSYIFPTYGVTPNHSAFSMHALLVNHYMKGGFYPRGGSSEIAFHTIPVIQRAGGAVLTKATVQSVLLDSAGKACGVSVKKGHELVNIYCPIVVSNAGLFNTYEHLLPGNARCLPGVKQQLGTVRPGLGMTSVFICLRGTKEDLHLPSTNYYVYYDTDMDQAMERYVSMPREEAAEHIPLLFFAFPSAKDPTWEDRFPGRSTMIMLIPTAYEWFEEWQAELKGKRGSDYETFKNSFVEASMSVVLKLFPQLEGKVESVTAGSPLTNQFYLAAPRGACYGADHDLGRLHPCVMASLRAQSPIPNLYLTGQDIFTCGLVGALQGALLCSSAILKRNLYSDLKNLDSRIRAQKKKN
UniProt Q15293: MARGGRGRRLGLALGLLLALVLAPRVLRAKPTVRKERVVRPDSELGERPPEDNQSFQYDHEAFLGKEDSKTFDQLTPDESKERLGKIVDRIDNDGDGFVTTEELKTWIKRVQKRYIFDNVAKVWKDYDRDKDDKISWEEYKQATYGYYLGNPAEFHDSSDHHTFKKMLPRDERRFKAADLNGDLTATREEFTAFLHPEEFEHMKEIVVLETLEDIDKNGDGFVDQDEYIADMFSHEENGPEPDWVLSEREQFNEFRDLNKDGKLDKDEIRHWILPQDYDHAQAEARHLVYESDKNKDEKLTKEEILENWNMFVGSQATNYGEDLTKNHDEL
UniProt Q99496: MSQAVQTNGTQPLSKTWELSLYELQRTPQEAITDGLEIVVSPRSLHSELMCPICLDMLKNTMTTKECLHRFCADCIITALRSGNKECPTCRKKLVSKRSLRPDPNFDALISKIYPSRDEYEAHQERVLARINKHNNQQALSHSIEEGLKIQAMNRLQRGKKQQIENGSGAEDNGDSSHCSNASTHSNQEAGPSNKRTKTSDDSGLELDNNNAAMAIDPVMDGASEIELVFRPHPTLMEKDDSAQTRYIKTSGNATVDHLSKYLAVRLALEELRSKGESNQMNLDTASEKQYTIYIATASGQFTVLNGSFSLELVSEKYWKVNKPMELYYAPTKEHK
UniProt O00287: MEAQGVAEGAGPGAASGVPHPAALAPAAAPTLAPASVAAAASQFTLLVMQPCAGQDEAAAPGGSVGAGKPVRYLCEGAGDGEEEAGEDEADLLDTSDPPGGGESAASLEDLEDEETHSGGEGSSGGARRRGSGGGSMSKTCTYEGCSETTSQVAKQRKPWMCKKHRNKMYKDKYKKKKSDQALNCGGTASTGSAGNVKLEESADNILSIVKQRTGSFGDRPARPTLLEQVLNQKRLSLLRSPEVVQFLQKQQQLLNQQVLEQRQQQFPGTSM
UniProt Q02094: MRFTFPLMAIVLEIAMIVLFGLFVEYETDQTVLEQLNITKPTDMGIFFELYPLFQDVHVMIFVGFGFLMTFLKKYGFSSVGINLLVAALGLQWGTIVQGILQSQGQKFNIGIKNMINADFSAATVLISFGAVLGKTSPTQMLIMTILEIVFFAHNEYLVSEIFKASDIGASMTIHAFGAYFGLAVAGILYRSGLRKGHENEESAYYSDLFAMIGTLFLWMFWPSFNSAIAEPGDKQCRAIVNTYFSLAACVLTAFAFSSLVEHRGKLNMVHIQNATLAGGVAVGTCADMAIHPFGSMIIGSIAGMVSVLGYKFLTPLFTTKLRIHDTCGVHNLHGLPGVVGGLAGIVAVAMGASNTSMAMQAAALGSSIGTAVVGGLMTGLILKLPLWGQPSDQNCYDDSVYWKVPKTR
UniProt Q96HR9: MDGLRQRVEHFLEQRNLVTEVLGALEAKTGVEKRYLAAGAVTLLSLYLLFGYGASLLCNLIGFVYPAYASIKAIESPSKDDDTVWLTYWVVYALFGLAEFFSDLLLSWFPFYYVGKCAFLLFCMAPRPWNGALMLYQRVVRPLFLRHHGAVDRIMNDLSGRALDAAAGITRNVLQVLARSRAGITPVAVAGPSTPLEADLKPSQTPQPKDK
UniProt Q9H1K0: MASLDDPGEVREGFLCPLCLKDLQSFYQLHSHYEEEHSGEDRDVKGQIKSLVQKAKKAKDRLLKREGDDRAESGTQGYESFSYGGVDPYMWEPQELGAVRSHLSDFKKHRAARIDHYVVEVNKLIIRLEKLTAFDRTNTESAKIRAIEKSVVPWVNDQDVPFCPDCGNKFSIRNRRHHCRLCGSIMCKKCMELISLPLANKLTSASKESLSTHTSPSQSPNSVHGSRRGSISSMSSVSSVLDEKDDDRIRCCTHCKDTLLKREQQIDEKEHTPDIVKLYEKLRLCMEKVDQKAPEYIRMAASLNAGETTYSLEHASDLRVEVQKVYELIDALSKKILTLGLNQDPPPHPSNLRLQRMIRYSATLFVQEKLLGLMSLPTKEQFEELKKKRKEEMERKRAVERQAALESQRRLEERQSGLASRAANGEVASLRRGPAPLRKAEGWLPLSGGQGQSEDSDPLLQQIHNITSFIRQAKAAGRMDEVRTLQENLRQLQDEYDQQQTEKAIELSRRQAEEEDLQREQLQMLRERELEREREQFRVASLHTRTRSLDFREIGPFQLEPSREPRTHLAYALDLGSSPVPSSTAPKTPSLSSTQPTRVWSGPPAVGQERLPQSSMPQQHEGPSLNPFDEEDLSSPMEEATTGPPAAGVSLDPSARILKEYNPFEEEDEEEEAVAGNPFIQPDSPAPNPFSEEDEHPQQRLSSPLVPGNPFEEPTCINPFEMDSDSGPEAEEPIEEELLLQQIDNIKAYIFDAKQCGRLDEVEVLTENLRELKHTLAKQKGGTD
UniProt O00584, whole entry, looked up: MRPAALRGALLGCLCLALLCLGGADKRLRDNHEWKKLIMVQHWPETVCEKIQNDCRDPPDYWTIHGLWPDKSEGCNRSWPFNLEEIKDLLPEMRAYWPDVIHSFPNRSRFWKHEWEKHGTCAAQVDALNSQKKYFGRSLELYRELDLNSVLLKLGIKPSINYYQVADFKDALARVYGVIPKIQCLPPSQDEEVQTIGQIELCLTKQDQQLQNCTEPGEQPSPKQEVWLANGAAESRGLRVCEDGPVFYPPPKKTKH
UniProt Q5TA31: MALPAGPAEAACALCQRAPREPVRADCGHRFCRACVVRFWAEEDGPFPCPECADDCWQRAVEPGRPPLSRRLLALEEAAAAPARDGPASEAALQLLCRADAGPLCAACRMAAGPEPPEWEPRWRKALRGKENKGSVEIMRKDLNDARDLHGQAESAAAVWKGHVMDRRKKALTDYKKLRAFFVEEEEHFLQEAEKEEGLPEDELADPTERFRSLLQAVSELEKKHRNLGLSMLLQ
UniProt Q8WVD5: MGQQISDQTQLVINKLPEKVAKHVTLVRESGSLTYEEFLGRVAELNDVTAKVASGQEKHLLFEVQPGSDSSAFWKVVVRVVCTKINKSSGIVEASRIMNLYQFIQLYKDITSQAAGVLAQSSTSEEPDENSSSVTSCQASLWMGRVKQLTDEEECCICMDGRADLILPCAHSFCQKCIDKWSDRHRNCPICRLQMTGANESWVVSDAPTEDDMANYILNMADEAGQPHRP
UniProt Q9Y580: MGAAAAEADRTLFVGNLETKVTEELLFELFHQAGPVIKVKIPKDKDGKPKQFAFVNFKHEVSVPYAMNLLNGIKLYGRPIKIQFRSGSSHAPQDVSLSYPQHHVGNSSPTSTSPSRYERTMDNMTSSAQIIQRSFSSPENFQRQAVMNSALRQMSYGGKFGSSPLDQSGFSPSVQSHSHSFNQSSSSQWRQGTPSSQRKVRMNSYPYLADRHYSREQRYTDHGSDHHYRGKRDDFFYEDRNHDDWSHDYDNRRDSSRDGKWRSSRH
UniProt Q9NPQ8: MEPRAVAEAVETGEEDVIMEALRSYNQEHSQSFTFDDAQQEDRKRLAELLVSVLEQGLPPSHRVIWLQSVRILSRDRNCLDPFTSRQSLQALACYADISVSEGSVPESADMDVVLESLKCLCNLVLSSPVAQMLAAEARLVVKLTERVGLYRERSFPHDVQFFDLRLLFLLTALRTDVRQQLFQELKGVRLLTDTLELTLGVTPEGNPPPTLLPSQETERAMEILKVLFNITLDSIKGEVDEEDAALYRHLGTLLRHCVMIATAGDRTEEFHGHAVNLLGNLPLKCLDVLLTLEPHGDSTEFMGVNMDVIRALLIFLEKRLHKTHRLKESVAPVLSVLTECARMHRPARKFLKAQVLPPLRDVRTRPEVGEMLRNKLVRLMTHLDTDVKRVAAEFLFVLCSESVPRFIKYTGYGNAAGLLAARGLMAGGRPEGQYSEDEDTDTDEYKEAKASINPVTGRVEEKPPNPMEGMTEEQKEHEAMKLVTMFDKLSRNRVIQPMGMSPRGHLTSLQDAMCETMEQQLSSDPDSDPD
UniProt Q86VR2, whole entry, looked up: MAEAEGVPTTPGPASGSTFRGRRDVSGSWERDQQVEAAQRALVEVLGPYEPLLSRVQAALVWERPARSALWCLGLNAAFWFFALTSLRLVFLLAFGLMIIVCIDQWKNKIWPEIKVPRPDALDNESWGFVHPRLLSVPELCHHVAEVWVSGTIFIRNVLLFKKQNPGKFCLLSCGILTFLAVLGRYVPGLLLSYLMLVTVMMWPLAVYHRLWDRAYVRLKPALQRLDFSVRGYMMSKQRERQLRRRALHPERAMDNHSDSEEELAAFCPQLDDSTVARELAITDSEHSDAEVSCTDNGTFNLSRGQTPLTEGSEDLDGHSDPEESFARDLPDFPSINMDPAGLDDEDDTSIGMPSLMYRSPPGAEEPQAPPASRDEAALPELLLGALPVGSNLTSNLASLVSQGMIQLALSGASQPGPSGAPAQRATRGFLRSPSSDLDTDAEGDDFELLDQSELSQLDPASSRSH
UniProt Q6PCD5: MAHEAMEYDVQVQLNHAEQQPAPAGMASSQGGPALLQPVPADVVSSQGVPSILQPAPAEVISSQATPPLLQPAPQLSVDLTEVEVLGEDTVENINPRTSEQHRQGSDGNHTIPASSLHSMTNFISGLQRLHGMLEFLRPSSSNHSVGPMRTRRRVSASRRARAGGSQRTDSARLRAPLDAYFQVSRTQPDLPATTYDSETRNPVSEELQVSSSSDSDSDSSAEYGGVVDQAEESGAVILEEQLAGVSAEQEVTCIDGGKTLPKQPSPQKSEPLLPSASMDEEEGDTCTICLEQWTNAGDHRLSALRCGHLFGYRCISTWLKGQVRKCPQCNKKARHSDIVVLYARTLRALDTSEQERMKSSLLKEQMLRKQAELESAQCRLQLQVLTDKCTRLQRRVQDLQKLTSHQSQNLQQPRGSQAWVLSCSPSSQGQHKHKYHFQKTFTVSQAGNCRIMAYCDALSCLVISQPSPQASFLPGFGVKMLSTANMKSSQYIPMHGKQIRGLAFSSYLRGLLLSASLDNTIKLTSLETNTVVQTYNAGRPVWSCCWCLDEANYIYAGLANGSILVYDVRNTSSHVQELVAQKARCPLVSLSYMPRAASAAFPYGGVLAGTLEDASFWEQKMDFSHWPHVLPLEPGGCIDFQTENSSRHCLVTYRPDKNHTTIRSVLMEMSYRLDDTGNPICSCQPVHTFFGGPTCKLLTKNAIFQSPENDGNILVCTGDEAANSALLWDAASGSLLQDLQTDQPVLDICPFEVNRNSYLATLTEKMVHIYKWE

Assays:
Assay in all cases: log2 fold change, soluble protein after heating vs DMSO (PISA); higher = thermal stabilisation; K562 cells, 10 uM, 30 min; active = over 0.2 and 3.5 SD of the protein, either way, in both replicates (recomputed)
[1] = compound: CS(=O)(=O)c1ccc(-c2cnc(N)c(C(=O)Nc3ccccc3)n2)cc1
Method in brief: (§1)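 K562 cells at 2×10^6 cells/mL were given 10 μM compound for 30 min. Aliquots then went through 3 min of heating across 48°C-58°C, were pooled, and were extracted in PBS with 0.5% NP-40 at 4°C, and the supernatant after 21,000xg for 90 min was quantified by TMTpro 16plex LC-MS/MS with channel sums equalised. Thermal stability relative to control samples, from duplicates, is given as log2 fold change.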

[2] = compound: C[C@@H](Oc1cc(-c2cnn(C3CCNCC3)c2)cnc1N)c1c(Cl)ccc(F)c1Cl [crizotinib]
Method in brief: as §1

[3] = compound: C[C@@H]1COCCN1C2=NC(=NC(=C2)C3(CC3)S(=O)(=O)C)C4=C5C=CNC5=CC=C4
Method in brief: as §1

[4] = compound: C[C@H](C1=CC=C(C=C1)C(=O)NC2=C3C=CNC3=NC=C2)N
Method in brief: as §1

[5] = compound: Cc1cc(Nc2cc(CN3CCOCC3)c3nc(C)c(Cc4ccc(Cl)cc4F)n3n2)n[nH]1 [gandotinib]
Method in brief: as §1

[6] = compound: Cc1cc(SCc2sc(-c3ccc(C(F)(F)F)cc3)nc2C)ccc1OCC(=O)O
Method in brief: as §1

[7] = compound: Cc1ccc(-n2nc(C(C)(C)C)cc2NC(=O)Nc2ccc(OCCN3CCOCC3)c3ccccc23)cc1 [doramapimod]
Method in brief: as §1

[8] = compound: Cc1ccc(C(=O)N(CCCN)[C@@H](c2nc3cc(Cl)ccc3c(=O)n2Cc2ccccc2)C(C)C)cc1 [ispinesib]
Method in brief: as §1

[9] = compound: C[C@H](Nc1ncnc2nc[nH]c12)c1cc2cccc(Cl)c2c(=O)n1-c1ccccc1 [duvelisib]
Method in brief: as §1

[10] = compound: Cc1cc(Nc2cc(N3CCN(C)CC3)nc(Sc3ccc(NC(=O)C4CC4)cc3)n2)n[nH]1 [tozasertib]
Method in brief: as §1

RIOK2 (UniProt Q9BVS4)
log2 fold change [1]: inactive: 0.059 | log2 fold change [2]: inactive: -0.057 | log2 fold change [3]: inactive: -0.167 | log2 fold change [4]: inactive: 0.189 | log2 fold change [5]: inactive: 0.263 | log2 fold change [6]: inactive: 0.053 | log2 fold change [7]: inactive: 0.084 | log2 fold change [8]: inactive: -0.019

RHOG (UniProt P84095)
log2 fold change [1]: inactive: 0.022 | log2 fold change [2]: inactive: 0.062 | log2 fold change [3]: inactive: 0.048 | log2 fold change [4]: inactive: -0.071 | log2 fold change [9]: inactive: -0.016 | log2 fold change [5]: inactive: -0.04 | log2 fold change [10]: inactive: 0 | log2 fold change [6]: inactive: -0.033 | log2 fold change [7]: inactive: -0.001 | log2 fold change [8]: inactive: 0.09

RETSAT (UniProt Q6NUM9)
log2 fold change [1]: inactive: -0.038 | log2 fold change [2]: inactive: 0.005 | log2 fold change [3]: inactive: -0.129 | log2 fold change [4]: inactive: -0.003 | log2 fold change [5]: inactive: 0.284 | log2 fold change [6]: inactive: 0.036 | log2 fold change [7]: inactive: 0.147 | log2 fold change [8]: inactive: -0.008

RCHY1 (UniProt Q96PM5)
log2 fold change [1]: inactive: -0.01 | log2 fold change [2]: inactive: 0.106 | log2 fold change [3]: inactive: 0.021 | log2 fold change [4]: inactive: -0.116 | log2 fold change [9]: inactive: -0.013 | log2 fold change [5]: inactive: 0.255 | log2 fold change [10]: inactive: 0.041 | log2 fold change [6]: inactive: 0.008 | log2 fold change [7]: inactive: -0.037 | log2 fold change [8]: inactive: 0.016

RCN1 (UniProt Q15293)
log2 fold change [1]: inactive: -0.002 | log2 fold change [2]: inactive: 0.057 | log2 fold change [3]: inactive: 0.018 | log2 fold change [4]: inactive: 0.014 | log2 fold change [9]: inactive: 0.007 | log2 fold change [5]: inactive: -0.01 | log2 fold change [10]: inactive: -0.039 | log2 fold change [6]: inactive: 0.004 | log2 fold change [7]: inactive: -0.034 | log2 fold change [8]: inactive: -0.006

RNF2 (UniProt Q99496)
log2 fold change [1]: inactive: 0.008 | log2 fold change [2]: inactive: -0.028 | log2 fold change [3]: inactive: -0.013 | log2 fold change [4]: inactive: -0.105 | log2 fold change [5]: inactive: -0.091 | log2 fold change [6]: inactive: 0.073 | log2 fold change [7]: inactive: -0.093

RIOK1 (UniProt Q9BRS2)
log2 fold change [1]: inactive: 0.018 | log2 fold change [2]: inactive: 0.027 | log2 fold change [3]: inactive: -0.025 | log2 fold change [4]: inactive: 0.091 | log2 fold change [9]: inactive: 0.013 | log2 fold change [5]: inactive: 0.026 | log2 fold change [10]: inactive: -0.008 | log2 fold change [6]: inactive: -0.035 | log2 fold change [7]: inactive: 0.016 | log2 fold change [8]: inactive: -0.001

RFXAP (UniProt O00287)
log2 fold change [1]: inactive: 0.182 | log2 fold change [2]: inactive: 0.02 | log2 fold change [3]: inactive: -0.057 | log2 fold change [4]: inactive: -0.012 | log2 fold change [9]: inactive: -0.021 | log2 fold change [10]: inactive: -0.018 | log2 fold change [6]: inactive: -0.058 | log2 fold change [7]: inactive: -0.01 | log2 fold change [8]: inactive: -0.036

RHAG (UniProt Q02094)
log2 fold change [1]: inactive: 0.034 | log2 fold change [2]: inactive: -0.154 | log2 fold change [3]: inactive: -0.033 | log2 fold change [4]: inactive: -0.16 | log2 fold change [9]: inactive: 0.032 | log2 fold change [5]: inactive: -0.082 | log2 fold change [10]: inactive: 0.041 | log2 fold change [6]: inactive: 0.064 | log2 fold change [7]: inactive: 0.09 | log2 fold change [8]: inactive: -0.06

REEP5 (UniProt Q00765)
log2 fold change [1]: inactive: 0.037 | log2 fold change [2]: inactive: 0.155 | log2 fold change [3]: inactive: 0.006 | log2 fold change [4]: inactive: -0.037 | log2 fold change [9]: inactive: 0.002 | log2 fold change [5]: inactive: 0.171 | log2 fold change [10]: inactive: -0.037 | log2 fold change [6]: inactive: -0.004 | log2 fold change [7]: inactive: -0.087 | log2 fold change [8]: inactive: -0.126

RMDN3 (UniProt Q96TC7)
log2 fold change [1]: inactive: 0.06 | log2 fold change [2]: inactive: -0.014 | log2 fold change [3]: inactive: 0.053 | log2 fold change [4]: inactive: 0.015 | log2 fold change [9]: inactive: 0.04 | log2 fold change [5]: inactive: -0.042 | log2 fold change [10]: inactive: -0.006 | log2 fold change [6]: inactive: 0.076 | log2 fold change [7]: inactive: 0.078 | log2 fold change [8]: inactive: -0.032

RDH11 (UniProt Q8TC12)
log2 fold change [1]: inactive: 0.164 | log2 fold change [2]: inactive: -0.303 | log2 fold change [3]: inactive: 0.082 | log2 fold change [4]: inactive: 0.116 | log2 fold change [5]: inactive: 0.115 | log2 fold change [6]: active: 0.425 | log2 fold change [7]: inactive: 0.098 | log2 fold change [8]: inactive: -0.365

RILPL1 (UniProt Q5EBL4)
log2 fold change [1]: inactive: -0.102 | log2 fold change [2]: inactive: 0.024 | log2 fold change [3]: inactive: -0.038 | log2 fold change [4]: inactive: -0.028 | log2 fold change [9]: inactive: 0.019 | log2 fold change [10]: inactive: 0.12 | log2 fold change [6]: inactive: -0.124 | log2 fold change [7]: inactive: -0.034 | log2 fold change [8]: inactive: -0.227

RIPK2 (UniProt O43353)
log2 fold change [1]: inactive: -0.017 | log2 fold change [2]: inactive: -0.109 | log2 fold change [3]: inactive: 0.045 | log2 fold change [4]: inactive: -0.017 | log2 fold change [9]: inactive: 0.044 | log2 fold change [5]: inactive: 0.003 | log2 fold change [10]: inactive: -0.036 | log2 fold change [6]: inactive: 0.084 | log2 fold change [7]: inactive: -0.011 | log2 fold change [8]: inactive: 0.054

REEP6 (UniProt Q96HR9)
log2 fold change [1]: inactive: -0.026 | log2 fold change [2]: inactive: 0.139 | log2 fold change [3]: inactive: -0.037 | log2 fold change [4]: inactive: -0.175 | log2 fold change [9]: inactive: 0.125 | log2 fold change [5]: inactive: 0.059 | log2 fold change [10]: inactive: -0.082 | log2 fold change [6]: inactive: -0.053 | log2 fold change [7]: inactive: -0.012 | log2 fold change [8]: inactive: 0.226

RNASEH2A (UniProt O75792)
log2 fold change [1]: inactive: 0.106 | log2 fold change [2]: inactive: -0.134 | log2 fold change [3]: inactive: -0.045 | log2 fold change [4]: inactive: -0.032 | log2 fold change [5]: inactive: 0.156 | log2 fold change [6]: inactive: 0.029 | log2 fold change [7]: inactive: -0.023 | log2 fold change [8]: inactive: -0.001

RBSN (UniProt Q9H1K0)
log2 fold change [1]: inactive: -0.22 | log2 fold change [2]: inactive: -0.127 | log2 fold change [9]: inactive: -0.122 | log2 fold change [5]: inactive: -0.124 | log2 fold change [10]: inactive: 0.024 | log2 fold change [6]: inactive: 0.196 | log2 fold change [7]: inactive: 0.039 | log2 fold change [8]: inactive: -0.045

RNASET2 (UniProt O00584)
log2 fold change [1]: inactive: 0.033 | log2 fold change [2]: active: -0.35 | log2 fold change [3]: inactive: 0.027 | log2 fold change [4]: inactive: 0.08 | log2 fold change [5]: inactive: 0.01 | log2 fold change [6]: inactive: -0.037 | log2 fold change [7]: inactive: -0.013 | log2 fold change [8]: inactive: -0.149

RNF187 (UniProt Q5TA31)
log2 fold change [1]: inactive: -0.097 | log2 fold change [2]: inactive: -0.018 | log2 fold change [3]: inactive: -0.019 | log2 fold change [4]: inactive: -0.027 | log2 fold change [5]: inactive: -0.111 | log2 fold change [6]: inactive: 0.038 | log2 fold change [7]: inactive: 0.015 | log2 fold change [8]: inactive: 0.191

RNF141 (UniProt Q8WVD5)
log2 fold change [1]: inactive: 0.095 | log2 fold change [2]: inactive: 0.101 | log2 fold change [5]: inactive: -0.023 | log2 fold change [10]: inactive: 0.097 | log2 fold change [7]: inactive: 0.001 | log2 fold change [8]: inactive: 0.258

RBM7 (UniProt Q9Y580)
log2 fold change [1]: inactive: 0.081 | log2 fold change [3]: inactive: -0.002 | log2 fold change [4]: inactive: -0.038 | log2 fold change [9]: inactive: 0.052 | log2 fold change [5]: inactive: -0.13 | log2 fold change [10]: inactive: -0.053 | log2 fold change [6]: inactive: 0.091 | log2 fold change [8]: inactive: -0.34

RIC8A isoform 3 (UniProt Q9NPQ8)
log2 fold change [1]: inactive: 0.042 | log2 fold change [2]: inactive: -0.085 | log2 fold change [3]: inactive: -0.036 | log2 fold change [4]: inactive: 0.094 | log2 fold change [5]: inactive: -0.038 | log2 fold change [6]: inactive: 0.193 | log2 fold change [7]: inactive: 0.094 | log2 fold change [8]: inactive: -0.145

RERE (UniProt Q9P2R6)
log2 fold change [1]: inactive: 0.102 | log2 fold change [2]: inactive: 0.139 | log2 fold change [3]: inactive: -0.195 | log2 fold change [7]: inactive: 0.054 | log2 fold change [8]: inactive: -0.37

RETREG3 (UniProt Q86VR2)
log2 fold change [1]: inactive: 0.016 | log2 fold change [2]: inactive: -0.076 | log2 fold change [3]: inactive: 0.081 | log2 fold change [4]: inactive: 0.024 | log2 fold change [5]: inactive: 0.007 | log2 fold change [6]: inactive: 0.033 | log2 fold change [7]: inactive: -0.052 | log2 fold change [8]: active: -0.459

RFWD3 (UniProt Q6PCD5)
log2 fold change [1]: inactive: -0.161 | log2 fold change [3]: inactive: -0.027 | log2 fold change [4]: inactive: 0.03

RIC1 (UniProt Q4ADV7)
log2 fold change [1]: inactive: 0.106 | log2 fold change [2]: inactive: -0.159 | log2 fold change [3]: inactive: 0.079 | log2 fold change [9]: inactive: 0.101 | log2 fold change [5]: inactive: -0.007 | log2 fold change [6]: inactive: 0.185 | log2 fold change [7]: inactive: -0.004 | log2 fold change [8]: inactive: 0.142
